Consider 14 molecules from the supplement of paper PMC10735217.

In the assay the test system is HEK293A TEAD-LUC reporter. The assay can be described thus: TEAD-luciferase reporter activity (YAP activation), robust Z score vs plate; higher = stronger YAP/TEAD activation. To be noted: 24 h. For orientation: Reporter assays use an easily measured gene product as a stand-in for the process of interest.

This is one part of the list. This data set is noisy: repeats of one test often differ as much as different tests do.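 The human kidney-derived cells carry a stably integrated construct of eight TEAD-binding elements driving luciferase, read by luminescence in a drug-repurposing library screen. A compound counts as a hit when its signal is more than five robust Z scores above the plate mean.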

Consider `CN1CCN(C(=O)c2nc3ccc(Cl)cc3[nH]2)CC1`, for which the TEAD-luciferase reporter activity by setting is: (compound concentration: 200 nM) inactive: -1.05; (compound concentration: 2 uM) inactive: -1.19; (compound concentration: 10 uM) inactive: -0.437.
The like results for `CC(=O)OCC1=C(C(=O)OC(C)(C)C)N2C(=O)[C@@H](NC(=O)[C@H](NC(=O)OCc3ccccc3)C(C)C)[C@H]2S(=O)(=O)C1` were, in that order, inactive: -0.898, inactive: -1.04 and inactive: -1.06.
For `CC[C@H]1CCC[C@H](O[C@H]2CC[C@H](N(C)C)[C@@H](C)O2)[C@@H](C)C(=O)C2=C[C@@H]3[C@@H](C=C(C)[C@@H]4C[C@@H](O[C@@H]5O[C@@H](C)[C@H](OC)[C@@H](OC)[C@H]5OC)C[C@@H]34)[C@@H]2CC(=O)O1`, the TEAD-luciferase reporter activity is inactive: 1.97 (compound concentration: 200 nM) and inactive: -0.477 (compound concentration: 10 uM).
Take `Cc1cc2ncc(C(=O)NCCN3CCOCC3)cn2n1`: the TEAD-luciferase reporter activity is inactive: -2.11 (compound concentration: 200 nM) and inactive: -0.697 (compound concentration: 10 uM).
As for `CN1CCN(c2ncc(-c3cc(Cl)cc(Cl)c3Cl)c(N)n2)CC1` [Sipatrigine], the TEAD-luciferase reporter activity reads like this: (compound concentration: 200 nM) inactive: 1.28; (compound concentration: 2 uM) inactive: -0.84; (compound concentration: 10 uM) inactive: -1.58.
The matching figures for `Cc1cc(NS(=O)(=O)c2ccc(N)cc2)nc(C)n1`: inactive: -0.778, inactive: -0.594 and inactive: 0.406.
As for `[Cl][Mn-5]1234([Cl])[n+]5c6cccc5C[NH+]1[C@@H]1CCCC[C@H]1[NH+]2CC[NH+]3[C@@H]1CCCC[C@H]1[NH+]4C6` (some centres not stated) [Imisopasem manganese], the TEAD-luciferase reporter activity reads like this: (compound concentration: 200 nM) inactive: 1.46; (compound concentration: 2 uM) inactive: -0.361; (compound concentration: 10 uM) inactive: 0.283.
In the case of `CCOc1cc([C@@H](CS(C)(=O)=O)N2C(=O)c3cccc(NC(C)=O)c3C2=O)ccc1OC` [Apremilast], the TEAD-luciferase reporter activity by setting is: (compound concentration: 200 nM) inactive: -3.3; (compound concentration: 2 uM) inactive: -1.44; (compound concentration: 10 uM) inactive: 2.59.
The matching figures for `O=C1COc2cc(C(=O)N3CCN(C(=O)c4ccc(Cl)cc4)CC3)ccc2N1`: inactive: -0.97, inactive: -1.47 and inactive: -0.704.
The like results for `CC(C)(C)C(=O)CCC1C(=O)N(c2ccccc2)N(c2ccccc2)C1=O` were, in that order, inactive: 2.21, inactive: 0.699 and inactive: 1.99.
With `Cc1c(N2C[C@@H](N)C3(CC3)C2)c(F)c(N)c2c(=O)c(C(=O)O)cn(C3CC3)c12`, the TEAD-luciferase reporter activity is, setting by setting: (compound concentration: 200 nM) inactive: 0.343; (compound concentration: 2 uM) inactive: -0.548; (compound concentration: 10 uM) inactive: -0.528.
On to `S=C([S-])OC1CC2CC1C1CCCC21` (configuration not stated), for which, under “compound concentration: 2 uM”, the TEAD-luciferase reporter activity is inactive: -0.262.
For `S=C([S-])OC1CC2CC1C1CCCC21` [D-609 potassium], the TEAD-luciferase reporter activity was inactive: -1.05 (compound concentration: 200 nM) and inactive: -0.498 (compound concentration: 10 uM).
Consider `CC(=O)O[C@]1(C(C)=O)CCC2C3CCC4=CC(=O)CCC4=C3[C@@H](c3ccc(N(C)C)cc3)C[C@@]21C` (some centres not stated) [ulipristal acetate], for which the TEAD-luciferase reporter activity is inactive: -1.22 (compound concentration: 200 nM), inactive: -0.428 (compound concentration: 2 uM) and inactive: 3.99 (compound concentration: 10 uM).
